# Reference: patent US20050175535A1 (CV Therapeutics, Inc., priority 2000, published 2005)
# By UniProt entry, the sequences of proteins in these tests, tags left out. Where a name states a change or a piece, a line headed by the entry shows the natural chain unless it says otherwise.
# UniProt P30543, whole entry: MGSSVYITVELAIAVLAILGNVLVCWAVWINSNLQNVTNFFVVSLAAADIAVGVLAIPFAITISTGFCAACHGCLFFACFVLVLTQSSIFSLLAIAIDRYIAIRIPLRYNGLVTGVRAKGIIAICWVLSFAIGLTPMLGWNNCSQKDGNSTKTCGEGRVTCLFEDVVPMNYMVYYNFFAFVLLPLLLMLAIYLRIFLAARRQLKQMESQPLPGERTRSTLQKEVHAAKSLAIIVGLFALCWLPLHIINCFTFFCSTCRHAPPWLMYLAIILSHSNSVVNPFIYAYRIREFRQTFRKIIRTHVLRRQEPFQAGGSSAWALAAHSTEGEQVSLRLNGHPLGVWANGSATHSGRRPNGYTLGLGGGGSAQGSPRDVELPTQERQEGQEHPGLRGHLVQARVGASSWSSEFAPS
# For some assays here: For at least one compound, name, drawing or mass did not settle the structure. Some entries share one result that the patent states for a list of compounds.
# Columns and labels:
# [1] = tested on: rat isolated perfused heart; experiment: Reversal time of coronary vasodilation in rat isolated perfused hearts; conditions: bolus, FIG. 10
# Experimental: FIG. 10. Reversal of effect of agonist stimulation on CC. […] CC was measured at 8, 16 and 24 minutes after administration (FIG. 10A). […] R and N are the correlation coefficient and number of agonists, respectively.
# The relationship between the affinity of agonists for the A2A receptor and the rate of reversal of agonist-mediated responses (coronary vasodilation in heart and cAMP accumulation in PC12 cells) upon termination of drug administration were determined. […] The duration of the coronary vasodilation in isolated rat hearts caused by adenosine, the CVT compounds, and other agonists measured as the time to 50% and 90% (t0.5 and t0.9, respectively) reversal of the increases in coronary conductance after termination of drug administration are summarized in Table 4.
# [2] = target: A2A adenosine receptors (PC12 cells) (Rattus norvegicus, UniProt P30543); experiment: cAMP accumulation in PC12 cells
Compound,duration of the effect on coronary conductance (rank among agonists) [1],fold less potent than CGS21680 in stimulating cAMP accumulation [2]
"Nc1nc(N/N=C/C2CCCCC2)nc2c1ncn2[C@@H]1O[C@H](CO)[C@@H](O)[C@H]1O [WRC0470, 2-cyclohexylmethylidenehydrazinoadenosine, reference compound]",longest duration,
CCCCCn1cc(-c2nc(N)c3ncn(C4O[C@@H](CO)[C@H](O)[C@@H]4O)c3n2)cn1 (some centres unmarked) [CVT-3033],,10-15 fold
